Test results as given in paper PMC12474298.
No constants are given. Whether binding was seen depends on the method and setting.

Amino acid sequences for entries named in this document (tags omitted).
UniProt P70168: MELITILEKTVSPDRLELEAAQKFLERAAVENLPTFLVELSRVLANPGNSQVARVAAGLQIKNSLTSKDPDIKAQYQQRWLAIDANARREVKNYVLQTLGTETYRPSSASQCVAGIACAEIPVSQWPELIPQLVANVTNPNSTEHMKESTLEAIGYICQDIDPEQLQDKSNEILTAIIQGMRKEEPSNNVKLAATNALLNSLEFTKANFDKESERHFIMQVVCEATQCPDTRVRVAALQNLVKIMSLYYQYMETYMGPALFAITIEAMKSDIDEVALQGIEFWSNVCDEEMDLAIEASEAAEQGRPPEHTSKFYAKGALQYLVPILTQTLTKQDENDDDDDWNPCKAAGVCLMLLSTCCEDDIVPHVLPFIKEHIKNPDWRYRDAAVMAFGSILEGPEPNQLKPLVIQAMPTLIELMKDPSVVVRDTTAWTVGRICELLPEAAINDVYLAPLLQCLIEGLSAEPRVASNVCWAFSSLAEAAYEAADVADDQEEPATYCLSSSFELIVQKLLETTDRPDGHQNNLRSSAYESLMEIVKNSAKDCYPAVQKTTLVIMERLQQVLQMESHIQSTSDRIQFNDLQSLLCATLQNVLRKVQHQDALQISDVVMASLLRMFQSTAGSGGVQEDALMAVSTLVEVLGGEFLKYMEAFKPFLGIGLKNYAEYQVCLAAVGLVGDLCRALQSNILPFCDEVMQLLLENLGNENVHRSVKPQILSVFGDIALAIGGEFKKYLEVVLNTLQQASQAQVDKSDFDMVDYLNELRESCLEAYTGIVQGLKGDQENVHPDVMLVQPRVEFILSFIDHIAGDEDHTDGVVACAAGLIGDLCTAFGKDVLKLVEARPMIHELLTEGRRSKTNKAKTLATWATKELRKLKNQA

Target: T1, HaHV1 UL36h NLS peptide (residues 1491-1500), FITC/Ahx-labelled (haliotid herpesvirus 1 (HaHV1))
T1 sequence (peptide): ETKKRRRILE
Experiment: native gel or EMSA; both purified

mouse importin β1 (IMPβ1) (from UniProt P70168 1-876)
binding: no binding (tested: 20 μM (10 μM peptide))
